PubChem BioAssay AID1259254 | NCATS | 2017

Test: 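Finding genes that stop cells copying their DNA twice in one cycle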 (primary screen)
System: human HCT116 colorectal cancer cells
Reagents: single siRNA against human genes
Timing: 3 days
Measured: 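Imaged Hoechst DNA stain sorts each cell into a cycle phase by DNA amount; per plate, G2 fraction set to 0% for non-targeting and 100% for GMNN siRNA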
Reading the numbers: G2 robust z-score and G2 cells, % of GMNN control: higher = more G2 cells, more excess DNA replication
Active means: 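An siRNA counts as active if its G2 robust z-score lies at least 5 MADs above the screen median; here such calls match roughly 38% of GMNN control or more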
This is a random part of about 59,000 reagents. About 1,550 of all reagents (2.6%) were called active. 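G2 share is only a proxy for re-replication; each gene was hit by three separate siRNAs, and active genes were retested.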 Entries without a mark were called inactive. Reagents against one gene are numbered here. Further read-outs or replicates are left out here. Not stated in the record: the amount of reagent.

The opening 6 records, ahead of the listing:
no.	gene	reagent no.	G2 robust z-score	G2 cells, % of GMNN control
1	GRM6 (glutamate metabotropic receptor 6)	1	1.11	10.8
2	GRM6 (glutamate metabotropic receptor 6)	2	0.157	4.07
3	GRM6 (glutamate metabotropic receptor 6)	3	0.319	5.21
4	ACBD4 (acyl-CoA binding domain containing 4)	1	-0.34	0.575
5	ACBD4 (acyl-CoA binding domain containing 4)	2	-0.195	1.59
6	ACBD4 (acyl-CoA binding domain containing 4)	3	1.68	14.8

The list itself, from the start:
no.	gene	reagent no.	G2 robust z-score	G2 cells, % of GMNN control
1	GRM6 (glutamate metabotropic receptor 6)	1	1.11	10.8
2	GRM6 (glutamate metabotropic receptor 6)	2	0.157	4.07
3	GRM6 (glutamate metabotropic receptor 6)	3	0.319	5.21
4	ACBD4 (acyl-CoA binding domain containing 4)	1	-0.34	0.575
5	ACBD4 (acyl-CoA binding domain containing 4)	2	-0.195	1.59
6	ACBD4 (acyl-CoA binding domain containing 4)	3	1.68	14.8
7	ATP11AUN (ATP11A upstream neighbor lncRNA)	1	7.21 (active)	53.7
8	ATP11AUN (ATP11A upstream neighbor lncRNA)	2	1.17	11.2
9	ATP11AUN (ATP11A upstream neighbor lncRNA)	3	4.22	32.6
10	ERG (ETS transcription factor ERG)	1	0.357	5.48
11	ERG (ETS transcription factor ERG)	2	1.18	11.3
12	ERG (ETS transcription factor ERG)	3	-0.575	-1.08
13	CEP76 (centrosomal protein 76)	1	-0.671	-1.75
14	CEP76 (centrosomal protein 76)	2	-0.223	1.4
15	CEP76 (centrosomal protein 76)	3	0.446	6.11
16	ARHGEF35 (Rho guanine nucleotide exchange factor 35)	1	-0.367	0.384
17	ARHGEF35 (Rho guanine nucleotide exchange factor 35)	2	-0.454	-0.229
18	ARHGEF35 (Rho guanine nucleotide exchange factor 35)	3	-0.412	0.072
19	MS4A12 (membrane spanning 4-domains A12)	1	-0.0639	2.52
20	MS4A12 (membrane spanning 4-domains A12)	2	-0.241	1.27
21	MS4A12 (membrane spanning 4-domains A12)	3	-0.0614	2.54
22	ZIM2 (zinc finger imprinted 2)	1	0.0235	3.13
23	ZIM2 (zinc finger imprinted 2)	2	0.298	5.06
24	ZIM2 (zinc finger imprinted 2)	3	-0.892	-3.31
25	HYCC2 (hyccin PI4KA lipid kinase complex subunit 2)	1	-0.403	0.129
26	HYCC2 (hyccin PI4KA lipid kinase complex subunit 2)	2	-0.198	1.57
27	HYCC2 (hyccin PI4KA lipid kinase complex subunit 2)	3	0.0804	3.53
28	VPS45 (vacuolar protein sorting 45 homolog)	1	-1.21	-5.52
29	VPS45 (vacuolar protein sorting 45 homolog)	2	0.934	9.54
30	VPS45 (vacuolar protein sorting 45 homolog)	3	0.161	4.1
31	NCMAP (non-compact myelin associated protein)	1	1.71	15
32	NCMAP (non-compact myelin associated protein)	2	-0.342	0.562
33	NCMAP (non-compact myelin associated protein)	3	-0.469	-0.329
34	CCL21 (C-C motif chemokine ligand 21)	1	-0.666	-1.72
35	CCL21 (C-C motif chemokine ligand 21)	2	5.11 (active)	38.9
36	CCL21 (C-C motif chemokine ligand 21)	3	-0.295	0.892
37	RPS27A (ribosomal protein S27a)	1	3.18	25.3
38	RPS27A (ribosomal protein S27a)	2	0.758	8.3
39	RPS27A (ribosomal protein S27a)	3	0.7	7.89
40	MIMS2 (mitochondrial inner membrane structural 2)	1	-0.944	-3.68
41	MIMS2 (mitochondrial inner membrane structural 2)	2	0.0941	3.63
42	MIMS2 (mitochondrial inner membrane structural 2)	3	-0.862	-3.1
43	ATG14 (autophagy related 14)	1	-1.6	-8.31
44	ATG14 (autophagy related 14)	2	-0.34	0.576
45	ATG14 (autophagy related 14)	3	-0.34	0.573
46	LCOR (ligand dependent nuclear receptor corepressor)	1	-0.801	-2.67
47	LCOR (ligand dependent nuclear receptor corepressor)	2	-0.153	1.89
48	LCOR (ligand dependent nuclear receptor corepressor)	3	0.672	7.69
49	LCOR (ligand dependent nuclear receptor corepressor)	4	2.18	18.3
50	LCOR (ligand dependent nuclear receptor corepressor)	5	1.39	12.7
51	LCOR (ligand dependent nuclear receptor corepressor)	6	-0.333	0.624
52	C1orf220 (chromosome 1 putative open reading frame 220)	1	-0.752	-2.32
53	C1orf220 (chromosome 1 putative open reading frame 220)	2	0.633	7.42
54	C1orf220 (chromosome 1 putative open reading frame 220)	3	2.95	23.7
55	SLC26A7	1	1.24	11.7
56	SLC26A7	2	0.232	4.6
57	SLC26A7	3	1.5	13.5
58	WDCP (WD repeat and coiled coil containing)	1	0.0615	3.4
59	WDCP (WD repeat and coiled coil containing)	2	2.2	18.4
60	WDCP (WD repeat and coiled coil containing)	3	-0.271	1.06
61	TMPRSS15 (transmembrane serine protease 15)	1	-0.396	0.179
62	TMPRSS15 (transmembrane serine protease 15)	2	1.73	15.1
63	TMPRSS15 (transmembrane serine protease 15)	3	-0.464	-0.299
64	AMPD1 (adenosine monophosphate deaminase 1)	1	-0.912	-3.45
65	AMPD1 (adenosine monophosphate deaminase 1)	2	1.06	10.4
66	AMPD1 (adenosine monophosphate deaminase 1)	3	6.76 (active)	50.6
67	RNF208 (ring finger protein 208)	1	-0.29	0.927
68	RNF208 (ring finger protein 208)	2	-0.51	-0.618
69	RNF208 (ring finger protein 208)	3	2.18	18.3
